This passage reports CC50 results from patent US11584744B2 (UNIVERSITY OF WASHINGTON, priority 2017, dated 2023).

The nature of this series: Cytotoxicity testing on mammalian cells (AlamarBlue, 48 hours). It is filed as cell-based. The settings on record: human. The protocol: Cytotoxicity testing on mammalian cells: Compounds were assayed for cytotoxicity against CRL-8155 (human lymphoblasts) and HepG2 cells (human hepatocellular carcinoma). Cells were exposed to serial dilutions of compounds for 48 hours and toxicity was quantified using AlamarBlue (ThermoFisher Scientific, Waltham, Mass.). Assays were performed in quadruplicate and EC50 values were calculated with non-linear regression methods using software by the Collaborative Drug Database (Burlingame, Calif. www.collaborativedrug.com)
In general terms: Resazurin is reduced to fluorescent resorufin, in cell work by metabolically active cells.

Like-named read-outs stand apart in the source and are kept apart here. A value given as a limit tells only on which side of the number the result lay.

As usually defined, the CC50 is the concentration at which the toxic effect on the cells reaches its halfway point. As to `O=C(O)c1cn(C2CC2)c2cc(N3CCNCC3)c(F)cc2c1=O` [CIP, ciprofloxacin], the CC50 at 48 h (CRL-8155 cells (human lymphoblasts), read-out: Mamm. cells (CRL8155) CC50) was more than 33 µg/mL and the CC50 at 48 h (HepG2 cells (human hepatocellular carcinoma), read-out: Mamm. cells (HepG2) CC50) was more than 33 µg/mL.
